Patent US20170369592A1, “NOVEL ANTI-FIBROBLAST ACTIVATION PROTEIN (FAP) ANTIBODIES AND USES DERIVED THEREOF” (Mabimmune Diagnostics AG, priority 2015, published 2017)

System: FAP
Experiment: Pepscan epitope mapping with overlapping, truncated and alanine-mutated FAP peptides
Format: binding, human
Conditions: 188 linear 15-mer peptides, 11 amino acid overlap, antibody 1 μg/ml

Row | Molecule | binding epitope, sequence recognized on FAP
1 | NI-206.59B4: recombinant human-derived monoclonal anti-FAP antibody, variable regions in FIG. 1 (antibody, V domains shown) VH: QVQLVQSGAEVKKPGASVKVSCKTSGYTFTDYYIHWVRQAPGQGLEWMGWINPNRGGTNYAQKFQGRVTMTRDTSIATAYMELSRLRSDDTAVYYCATASLKIAAVGTFDCWGQGTLVTVSS VL: SYELTQPPSVSVSPGQTARITCSGDALSKQYAFWFQQKPGQAPILVIYQDTKRPSGIPGRFSGSSSGTTVTLTISGAQADDEADYYCQSADSSGTYVFGTGTKVTVL | 53-SYKTFFP-59
2 | NI-206.17A6: recombinant human-derived monoclonal anti-FAP antibody, variable regions in FIG. 1 (antibody, V domains shown) VH: QVQLQESGPGLVRSTETLSLTCLVSGDSINSHYWSWLRQSPGRGLEWIGYIYYTGPTNYNPSLKSRVSISLGTSKDQFSLKLSSVTAADTARYYCARNKVFWRGSDFYYYMDVWGKGTTVTVSS VL: EIVLTQSPGTLSLSLGERATLSCRASQSLANNYLAWYQQKPGQAPRLLMYDASTRATGIPDRFSGSGSGTDFTLTISRLEPEDFAVYYCQQFVTSHHMYIFGQGTKVEIK | 77-[…]-87
3 | NI-206.27E8: recombinant human-derived monoclonal anti-FAP antibody, variable regions in FIG. 1 (antibody, V domains shown) VH: EVQLVESGGGLVEPGGSLRLSCAASGFTFSDAWMNWVRQAPGKGLEWVGRIKTKSDGGTTDYAAPVRGRFSISRDDSKNTLFLEMNSLKTEDTAIYYCFITVIVVSSESPLDHWGQGTLVTVSS VL: SYELTQPPSVSVSPGQTARITCSGDELPKQYAYWYQQKPGQAPVLVIYKDRQRPSGIPERFSGSSSGTTVTLTISGVQAEDEADYYCQSAYSINTYVIFGGGTKLTVL | 169-NIYLKQR-175
4 | NI-206.12G4: recombinant human-derived monoclonal anti-FAP antibody, variable regions in FIG. 1 (antibody, V domains shown) VH: EVQLVESGGGLVKPGGSLRLSCAASGFTFSDYYMSWIRQAPGKGLEWISYISSGSSYTNYADSVKGRFTISRDNAKKSVYLEVNGLTVEDTAVYYCARVRYGDREMATIGGFDFWGQGTLVTVSS VL: SYELTQPPSVSVSPGQTARITCSGDALPKQYAYWYQQSPGQAPVLVIYKDSERPSGIPERFSGSSSGTTVTLTISGVQAEDEADYYCQSADSGGTSRIFGGGTKLTVL | 481-[…]-495
5 | NI-206.22F7: recombinant human-derived monoclonal anti-FAP antibody, variable regions in FIG. 1 (antibody, V domains shown) VH: EVQLVETGGGVVQPGRSLRLSCAASGFSFSTHGMYWVRQPPGKGLEWVAVISYDGSDKKYADSVKGRFTISRDNSKNTVYLEMSSVRAEDTALYYCFCRRDAFDLWGQGTMVTVSS VL: SYVLTQPPSVSVSPGQTARITCSGDALPKKYAYWYQQKSGQAPVLVIYEDTKRPSGIPERFSGSSSGTMATLTISGAQVEDEADYYCYSTDSSGNYWVFGGGTEVTVL | 381-[…]-391
6 | NI-206.82C2: recombinant human memory B cell-derived monoclonal anti-FAP IgG1 antibody, variable regions in FIG. 1A, FAP inhibitory (antibody, V domains shown) VH: QVQLQQSGPGLVKPSQTLSLTCAISGDSVSSNSVTWNWIRQSPSRGLEWLGRTYYRSKWYNDYAVSVKGRITINPDTSKNQFYLQLKSVTPEDAAVYYCARDSSILYGDYWGQGTLVTVSS VL: QAVLTQPSSLSASPGASASLTCTLPSGINVGTYRIFWFQQKPGSPPQYLLSYKSDSDNHQGSGVPSRFSGSKDASANAGILLISGLQSEDEADYYCMIWHSSAWVFGGGTKLTVL | 525-[…]-535

Same assay, conditions: peptides truncated by one amino acid from N- and C-terminus

Row | Molecule | minimum epitope region
7 | NI-206.82C2: recombinant human memory B cell-derived monoclonal anti-FAP IgG1 antibody, variable regions in FIG. 1A, FAP inhibitory (antibody, V domains shown) VH: QVQLQQSGPGLVKPSQTLSLTCAISGDSVSSNSVTWNWIRQSPSRGLEWLGRTYYRSKWYNDYAVSVKGRITINPDTSKNQFYLQLKSVTPEDAAVYYCARDSSILYGDYWGQGTLVTVSS VL: QAVLTQPSSLSASPGASASLTCTLPSGINVGTYRIFWFQQKPGSPPQYLLSYKSDSDNHQGSGVPSRFSGSKDASANAGILLISGLQSEDEADYYCMIWHSSAWVFGGGTKLTVL | 528-FDRSK-532
